Reference: PubChem BioAssay AID694 (Emory University Molecular Libraries Screening Center, 2007)
Several values for one entry are separate records, joined by “and”; a condition that tells them apart may be missing. Identical values can stand only once. The list shows a part of the results. Further columns of the screen follow, without active or inactive calls.

Chains of the proteins cited; added tags and fusions are not shown.
UniProt P03372, whole entry, looked up: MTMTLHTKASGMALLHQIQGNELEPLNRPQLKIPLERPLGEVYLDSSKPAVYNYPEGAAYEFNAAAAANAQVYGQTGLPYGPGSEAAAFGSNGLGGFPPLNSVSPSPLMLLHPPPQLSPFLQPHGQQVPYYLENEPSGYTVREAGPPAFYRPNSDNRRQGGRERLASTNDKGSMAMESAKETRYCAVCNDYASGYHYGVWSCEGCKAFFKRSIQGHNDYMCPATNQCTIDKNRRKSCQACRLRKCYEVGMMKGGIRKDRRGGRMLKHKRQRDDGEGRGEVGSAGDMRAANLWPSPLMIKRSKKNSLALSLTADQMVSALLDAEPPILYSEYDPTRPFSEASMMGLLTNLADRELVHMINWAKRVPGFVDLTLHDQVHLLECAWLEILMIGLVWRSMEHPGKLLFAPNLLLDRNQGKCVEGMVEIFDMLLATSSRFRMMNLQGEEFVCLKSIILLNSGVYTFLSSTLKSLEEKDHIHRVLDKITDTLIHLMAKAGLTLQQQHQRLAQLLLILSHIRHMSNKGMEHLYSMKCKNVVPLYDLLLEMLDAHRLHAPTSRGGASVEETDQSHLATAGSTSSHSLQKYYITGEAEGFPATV

Each compound was assayed against Estrogen receptor (Homo sapiens) (UniProt P03372) (assay: ERα coactivator peptide binding inhibitors, primary screen, biochemical, LOPAC library, TR-FRET (AID 694;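 note: receptor was agonist-bound with estradiol present during the assay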)). Conditions: TR-FRET ERalpha-coactivator peptide binding, at 15 µM, stronger effect = higher value.

| Compound | inhibition |
| --- | --- |
| O=c1[nH]c2cc(Cl)ccc2c(O)c1-c1ccc(Oc2ccccc2)cc1 | 0.86% |
| CN(C)CCCC1(c2ccc(F)cc2)OCc2cc(C#N)ccc21 (centres undefined) | -1.19% |
| O=S(=O)(NCCNC/C=C/c1ccc(Br)cc1)c1cccc2cnccc12 | -1.9% |
| C[C@H](NC(=O)/C(C#N)=C/c1ccc(O)c(O)c1)c1ccccc1 | 5.97% |
| CC(C)(C)c1cc(/C=C(\C#N)C(N)=S)cc(C(C)(C)C)c1O | 3.07% |
| C[C@H](O)C(=O)C1=Nc2c(nc(N)[nH]c2=O)NC1 | -6.12% |
| COc1ccccc1N1CCN(CCN2C(=O)CC3(CCCC3)CC2=O)CC1 | -2.59% |
| O=C(O)c1ccccc1Nc1cccc(OCc2ccc3ccccc3n2)c1 | 0.57% |
| CC(C)(C)NCC(O)c1ccc(O)c(CO)c1 (centres undefined) | 6.99% and 3.63% |
| CCCOC(=O)c1c(-c2ccccc2)nc(CC)c(C(=O)SCC)c1CCC | 2.08% |
| O[Si](CCCN1CCCCC1)(c1ccc(F)cc1)C1CCCCC1 (centres undefined) | 3.2% |
| CC1(NCC(O)COc2cccc3[nH]ccc23)CCC(C(C)(C)NC(=O)CBr)CC1 (centres undefined) | 1.63% |
| CCOC(=O)C1=C(C)NC(C)=C(C(=O)OC)C1c1cccc([N+](=O)[O-])c1 (centres undefined) | -4.29% |
| Cc1nc2c(OCc3ccccc3)cccn2c1CC#N | -4.79% |
| O=C1c2ccccc2-c2n[nH]c3cccc1c23 | -4.39% |
| COc1cc2c(c(OC)c1OC)-c1ccc(OC)c(=O)cc1[C@@H](NC(C)=O)CC2 | 2.39% |
| CNCCCC1c2ccccc2C=Cc2ccccc21 | 2.54% |
| O=C(Nc1ccccc1)c1cc([N+](=O)[O-])ccc1Cl | -0.12% |
| C[C@H]1CC2C3CCC4=CC(=O)C=C[C@]4(C)[C@@]3(Cl)[C@@H](O)C[C@]2(C)[C@@]1(O)C(=O)CO (some centres undefined) | 0.55% |
| C[N+]1(CCCCC[N+]2(C)CCCC2)CCCC1 | -0.57% |
| NC(=NCc1ccccc1)NC(=O)c1nc(Cl)c(N)nc1N | -0.81% |
| Fc1ccc(C(c2ccc(F)cc2)N2CCN(C/C=C/c3ccccc3)CC2)cc1 | 0.53% |
| COc1cccc2c1[C@@H]1CN(CCCCn3c(=O)[nH]c4c(sc5ncc(-c6ccccc6)nc54)c3=O)C[C@@H]1CO2 | -0.3% |
| CN1CCc2cc(O)c(O)cc2C(c2ccccc2)C1 (centres undefined) | 6.72% |

| Compound | inhibition |
| --- | --- |
| O=C(O)c1cccnc1Nc1cccc(C(F)(F)F)c1 | -4.11% |
| Cc1oncc1C(=O)Nc1ccc(C(F)(F)F)cc1 | 1.75% |
| CCCCCC[C@@H]([C@@H](C)O)n1cnc2c(N)ncnc21 | 1.04% |
| CC(C)(C(=O)O)c1ccc(C(O)CCCN2CCC(C(O)(c3ccccc3)c3ccccc3)CC2)cc1 (centres undefined) | -2.04% |
| Cc1cc(C(C)(C)C)c(O)c(C)c1CC1=NCCN1 | 5.97% |
| CCCCS(=N)(=O)CC[C@H](N)C(=O)O (some centres undefined) | 2.51% |
| CSc1ccc2c(c1)C(N1CCN(C)CC1)Cc1ccccc1S2 (centres undefined) | 3.24% |
| CCCN1C[C@H](CSC)C[C@@H]2c3cccc4[nH]cc(c34)C[C@H]21 | -4.39% |
| Cc1ccc(O)c(N=Nc2ccccc2)n1 | 8.5% |
| NC(=O)C1=CN(C2OC(COP(=O)(O)OP(=O)(O)OC[C@H]3O[C@@H](n4cnc5c(N)ncnc54)C(OP(=O)(O)O)[C@H]3O)C(O)C2O)C=CC1 (some centres undefined) | -1.52% |
| CC(O)C(O)[C@H]1CNc2nc(N)[nH]c(=O)c2N1 (some centres undefined) | 3.73% |
| CC1=C(/C=C/C(C)=C/C=C/C(C)=C/C(=O)O)C(C)(C)CCC1 | 5.42% |
| NCCCCN=C(N)N | -4.22% |
| CC(=O)Oc1ccccc1C(=O)O | -3.48% |
| O=C(O)[C@H]1NCCC[C@H]1C(=O)O | -2.1% |
| NC(=O)CNCCC(c1ccccc1)c1ccccc1 | 1.33% |
| CCO/C([O-])=N/c1c[n+](N2CCOCC2)no1 | 38.8% |
| CN1C[C@H](C(=O)N[C@]2(C)O[C@@]3(O)[C@@H]4CCCN4C(=O)[C@H](Cc4ccccc4)N3C2=O)C[C@@H]2c3cccc4[nH]cc(c34)C[C@H]21 | -4.01% |
| O=C(O)C1CCCN(CCC=C(c2ccccc2)c2ccccc2)C1 (centres undefined) | 29% |
| C[N+](C)(C)CCCCCCCCCC[N+](C)(C)C | 3.25% |
| O=C(O)/C(=C/c1c(C(=O)O)[nH]c2cc(Cl)cc(Cl)c12)c1ccccc1 | -1.33% |
| N[C@@H](Cc1c[nH]c2ccc(O)cc12)C(=O)O | 4.61% |
| Nc1nc(Nc2ccccc2)nc2c1ncn2[C@@H]1O[C@H](CO)[C@H](O)C1O (some centres undefined) | -6.63% |
| NC(N)=NCCSSCCN=C(N)N | 0.94% |

| Compound | inhibition |
| --- | --- |
| NCCCCCCNS(=O)(=O)c1cccc2c(Cl)cccc12 | -5.27% |
| CN1C2CCC1CC(OC(c1ccccc1)c1ccccc1)C2 (centres undefined) | -1.62% |
| CCCCCCCCCCCCCCCCCC(=O)NCC(COP(=O)([O-])OCC[N+](C)(C)C)OCC (centres undefined) | 4.76% |
| CC(=O)[C@H]1CC[C@H]2[C@@H]3CCC4=CC(=O)CC[C@]4(C)[C@H]3CC[C@]12C | 3.9% |
| Cn1c(=O)c2[nH]c(-c3ccccc3)nc2n(C)c1=O | -1.59% |
| CN1CCN(C2Cc3ccccc3Sc3ccc(Cl)cc32)CC1 (centres undefined) | -0.06% |
| NCCCC(=O)O | -8.48% |
| CC(=O)N[C@@H](Cc1c[nH]c2ccccc12)C(=O)OCc1cc(C(F)(F)F)cc(C(F)(F)F)c1 | -1.43% |
| CCN(CC)CCOC(=O)c1cc(Cl)c(N)cc1OC | 5.22% |
| N.N.O=C(O)C1(C(=O)O)CCC1.[Pt+2] | 7.11% |
| NCCCNCCCCNCCCN | 0.98% |
| CCN(CC)CCNC(=O)c1cc(Cl)c(N)cc1OC | -4.83% |
| O=C(O)Cc1c[nH]c2ccc(O)cc12 | 4.54% |
| CN/C(=C\[N+](=O)[O-])NCCSCc1ccc(CN(C)C)o1 | 1.1% |
| C1COC(NC(C2CC2)C2CC2)=N1 | 1.79% |
| Cn1c(=O)[nH]c2ncn(C)c2c1=O | 8.13% |
| CC1C(=O)N(C)C(=O)c2nc[nH]c21 (centres undefined) | 1.42% |
| Cc1ccc(S(=O)(=O)N[C@@H](Cc2ccccc2)C(=O)CCl)cc1 | 3.82% |
| c1cnc(N2CCN(Cc3ccc4c(c3)OCO4)CC2)nc1 | 1.77% |
| Cc1ccccc1N1CCN(S(=O)(=O)C[C@]23CCC(CC2NC(=O)[C@@H](N)CCS(C)(=O)=O)C3(C)C)CC1 (some centres undefined) | -2.77% |
| Fc1ccc(CN(C2=NCCN2)c2c(Cl)cccc2Cl)cc1 | 7.37% |
| COc1ccc2c(c1)c(CC(=O)O)c(C)n2C(=O)c1ccc(Cl)cc1 | 2.24% |
| Nc1nc2ccc(OC(F)(F)F)cc2s1 | 3.15% |
| O=C(O)c1cc(=O)cc(C(=O)O)[nH]1 | -1.49% |

| Compound | inhibition |
| --- | --- |
| CNC[C@H](O)c1ccc(O)c(O)c1 | -0.57% |
| O=C(CCc1ccc(O)cc1)c1c(O)cc(O)cc1O | 15.8% |
| O=c1[nH]c2cc([N+](=O)[O-])c([N+](=O)[O-])cc2[nH]c1=O | 4.66% |
| COc1cccc(-c2cc(=O)c3ccccc3o2)c1N | 0.3% |
| C[N+](C)(C)CCO | -5.46% |
| CCCCCCCCCCCCCCC[C@H](O)[C@H](N)CO | 35.3% |
| Nc1ccn([C@H]2CC[C@@H](CO)O2)c(=O)n1 | -1.46% |
| Cc1cccc(C)c1OCC(C)N (centres undefined) | 5.04% |
| COc1ccccc1N1CCN(CCCCN2C(=O)c3ccccc3C2=O)CC1 | 0.84% |
| O=[N+]([O-])c1ccc(CSc2ncnc3c2ncn3[C@@H]2O[C@H](CO)[C@H](O)C2O)cc1 (some centres undefined) | 0.51% |
| CCCc1c(-c2ccc(O)cc2)nn(-c2ccc(O)cc2)c1-c1ccc(O)cc1 | 36.6% |
| Oc1ccc(/C=C/c2cc(O)cc(O)c2)cc1 | 4.05% |
| CN(C)C(=O)C(CCN1CCC(O)(c2ccc(Cl)cc2)CC1)(c1ccccc1)c1ccccc1 | -0.92% |
| O=C(O)C1CCCNC1 (centres undefined) | -4.47% |
| COC1(C2=NCCN2)COc2ccccc2O1 (centres undefined) | 2.09% |
| CC(C)NC[C@@H](O)COc1ccc(CC(N)=O)cc1 | 3.19% |
| Nc1cc(=O)[nH]c(N)n1 | -5.05% |
| CCn1c(=O)[nH]c2cc(Cl)c(Cl)cc21 | 0.94% |
| O=C(O)[C@@H]1C[C@H](C(=O)O)N1 | -5.94% |
| S=C(S)N1CCCC1 | 6.4% |
| NS(=O)(=O)c1cc2c(cc1Cl)NC(C1CC3C=CC1C3)NS2(=O)=O (centres undefined) | -1.87% |
| NC(N)=NC(=O)c1nc(Cl)c(N)nc1N | 7.06% |
| C[C@@H](NCCc1ccc(O)cc1)[C@@H](O)c1ccc(O)cc1 | 0.31% |
| Nc1ncnc2c1nc(Br)n2C1OC2COP(=O)(O)O[C@@H]2C1O (some centres undefined) | 0.28% |

| Compound | inhibition |
| --- | --- |
| Ic1ccc(N2CCN(Cc3c[nH]c4ncccc34)CC2)cc1 | -5.13% |
| Cn1cnc([N+](=O)[O-])c1Sc1ncnc2nc[nH]c12 | 2.31% |
| Nc1cc(Cl)c(NC2=NCCN2)c(Cl)c1 | -3.62% |
| OCCN(CCO)c1nc(N2CCCCC2)c2nc(N(CCO)CCO)nc(N3CCCCC3)c2n1 | 4.03% |
| O=c1onc2cnc3ccccc3n12 | 27% |
| N#Cc1cc2nc(O)c(O)nc2cc1[N+](=O)[O-] | 20.1% |
| CN(C)C(N)=NCCC[C@H](N)C(=O)O | 6.27% |
| N[C@@H](CS(=O)O)C(=O)O | -0.96% |
| Cc1ccc(=O)n(-c2ccccc2)c1 | -0.24% |
| O=C(O)c1cc(=O)c2c(Cl)cc(Cl)cc2[nH]1 | 3.54% |
| C1CCc2nnnn2CC1 | 1.51% |
| CC(C)OC(=O)C(C)(C)Oc1ccc(C(=O)c2ccc(Cl)cc2)cc1 | 4.73% |
| O=C(O)CC1CCCc2ccccc2C1O (centres undefined) | -2.43% |
| COc1cc2ncnc(Nc3cccc(Cl)c3)c2cc1OC | -1.55% |
| O=C(O)c1cc2cc(Cc3cccnc3)ccc2o1 | -1.28% |
| N#C/C(=C\c1ccc(O)c(O)c1)C(=O)NCCCc1ccccc1 | 1.17% |
| CC1CCN=C(N)S1 (centres undefined) | -2.26% |
| Nc1ncnc2c1ncn2[C@@H]1O[C@H](COP(=O)(O)OP(=O)(O)OP(=O)(O)OP(=O)(O)OC[C@@H]2O[C@H](n3cnc4c(N)ncnc43)C(O)[C@@H]2O)[C@H](O)C1O (some centres undefined) | -2.43% |
| OC1(c2ccc(Cl)cc2)CCN(Cc2c[nH]c3ccccc23)CC1 | -0.66% |
| NC(=Nc1ccccc1)NC(=O)c1nc(Cl)c(N)nc1N | 3.25% |
| Cc1nc2ccccn2c(=O)c1CCN1CCC(C(=O)c2ccc(F)cc2)CC1 | 1.74% |
| O=C(CCNNC(=O)c1ccncc1)NCc1ccccc1 | 0.93% |
| CCCn1c(=O)c2[nH]c(C3CCCC3)nc2n(CCC)c1=O | 6.3% |
